These are yes or no findings as the source states them, for the method shown. In cells and extracts the contact can be indirect. Some results given as binding are weak or reduced against the parent protein; the word gives no strength.
T1: β3 integrin (human (endogenous in umbilical cord ECs)), P05106
T1 chain: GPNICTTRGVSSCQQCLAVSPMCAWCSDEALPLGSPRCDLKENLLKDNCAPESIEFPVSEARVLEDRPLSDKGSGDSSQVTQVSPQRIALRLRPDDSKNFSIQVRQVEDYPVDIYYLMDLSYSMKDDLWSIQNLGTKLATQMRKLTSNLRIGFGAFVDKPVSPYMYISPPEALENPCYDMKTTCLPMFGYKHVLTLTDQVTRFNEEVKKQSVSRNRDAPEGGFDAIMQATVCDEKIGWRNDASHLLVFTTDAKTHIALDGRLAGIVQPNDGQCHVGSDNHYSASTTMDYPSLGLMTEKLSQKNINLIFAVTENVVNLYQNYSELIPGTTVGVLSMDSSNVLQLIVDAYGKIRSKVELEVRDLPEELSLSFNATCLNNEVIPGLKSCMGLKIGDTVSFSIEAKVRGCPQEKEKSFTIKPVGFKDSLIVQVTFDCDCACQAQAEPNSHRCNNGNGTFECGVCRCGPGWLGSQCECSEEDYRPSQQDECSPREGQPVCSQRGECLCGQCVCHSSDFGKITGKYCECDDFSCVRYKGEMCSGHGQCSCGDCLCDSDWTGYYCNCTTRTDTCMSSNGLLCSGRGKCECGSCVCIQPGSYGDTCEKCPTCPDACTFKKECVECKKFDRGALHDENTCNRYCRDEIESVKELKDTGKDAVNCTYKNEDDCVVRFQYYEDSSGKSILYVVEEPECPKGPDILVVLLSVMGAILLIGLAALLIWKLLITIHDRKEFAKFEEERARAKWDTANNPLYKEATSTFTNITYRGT

By UniProt entry, the sequences of proteins in these tests, tags left out. Residues count along the entry.
UniProt P05556: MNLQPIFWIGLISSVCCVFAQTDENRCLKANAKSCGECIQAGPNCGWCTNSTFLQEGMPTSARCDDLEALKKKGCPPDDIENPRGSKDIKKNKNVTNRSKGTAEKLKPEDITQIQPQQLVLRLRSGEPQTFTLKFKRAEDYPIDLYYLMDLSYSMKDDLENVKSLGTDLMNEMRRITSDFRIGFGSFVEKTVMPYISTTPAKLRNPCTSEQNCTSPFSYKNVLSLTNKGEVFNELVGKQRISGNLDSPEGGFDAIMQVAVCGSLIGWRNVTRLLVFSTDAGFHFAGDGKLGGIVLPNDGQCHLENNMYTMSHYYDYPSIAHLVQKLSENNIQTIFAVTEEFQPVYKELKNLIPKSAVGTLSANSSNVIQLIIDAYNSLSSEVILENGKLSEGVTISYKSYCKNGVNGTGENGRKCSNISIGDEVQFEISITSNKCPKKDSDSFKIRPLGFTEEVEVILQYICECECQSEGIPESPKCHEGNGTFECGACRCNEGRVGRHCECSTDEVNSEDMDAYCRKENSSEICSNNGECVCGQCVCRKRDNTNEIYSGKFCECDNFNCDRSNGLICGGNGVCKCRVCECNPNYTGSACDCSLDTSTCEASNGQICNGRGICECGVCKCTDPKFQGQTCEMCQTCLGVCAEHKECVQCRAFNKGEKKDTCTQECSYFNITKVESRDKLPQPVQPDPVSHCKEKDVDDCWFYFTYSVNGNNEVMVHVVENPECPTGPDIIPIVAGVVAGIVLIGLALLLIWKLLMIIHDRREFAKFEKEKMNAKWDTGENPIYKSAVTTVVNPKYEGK
UniProt P37173, residues 23-567: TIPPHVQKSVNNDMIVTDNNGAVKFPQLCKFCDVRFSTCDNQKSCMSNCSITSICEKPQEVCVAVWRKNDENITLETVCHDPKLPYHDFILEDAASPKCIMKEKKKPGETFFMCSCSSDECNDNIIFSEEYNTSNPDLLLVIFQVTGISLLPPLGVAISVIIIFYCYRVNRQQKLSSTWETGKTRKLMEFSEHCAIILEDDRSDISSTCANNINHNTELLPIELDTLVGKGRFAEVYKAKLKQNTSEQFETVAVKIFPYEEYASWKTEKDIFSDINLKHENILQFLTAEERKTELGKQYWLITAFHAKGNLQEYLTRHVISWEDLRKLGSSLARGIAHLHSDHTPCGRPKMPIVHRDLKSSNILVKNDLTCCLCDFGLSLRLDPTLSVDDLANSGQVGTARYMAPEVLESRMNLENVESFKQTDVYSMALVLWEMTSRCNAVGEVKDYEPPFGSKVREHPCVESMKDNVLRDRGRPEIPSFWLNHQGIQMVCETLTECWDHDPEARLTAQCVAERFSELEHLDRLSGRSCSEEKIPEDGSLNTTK


Experiments:
Test in all cases: co-IP; immunoprecipitation with an antibody against β1 or β3 integrin from EC lysates, Western blot with antibodies against TβRI and TβRII; ECs plated on FN or LM, static or OSS (0.5 ± 4 dyn/cm^2) for 1 h or 24 h; lysis buffer 25 mM Hepes pH 7.4, 1% Triton X-100, 1% deoxycholate, 0.1% SDS, 0.125 M NaCl, 5 mM EDTA
[1] = molecular target: β1 integrin (human (endogenous in umbilical cord ECs)) (UniProt P05556)
[2] = molecular target: β3 integrin (human (endogenous in umbilical cord ECs)) (UniProt P05106)
[3] = molecular target: T1, β3 integrin (human (endogenous in …)); details: remark: other sources report otherwise

| Molecule | binding [1] | binding [2] | binding [3] |
| --- | --- | --- | --- |
| TGF-β receptor type II (from UniProt P37173 23-567) | binds | binds | – |
| TGF-β receptor type I (receptor, UniProt P36897 34-503) LQCFCHLCTKDNFTCVTDGLCFVSVTETTDKVIHNSMCIAEIDLIPRDRPFVCAPSSKTGSVTTTYCCNQDHCNKIELPTTVKSSPGLGPVELAAVIAGPVCFVCISLMLMVYICHNRTVIHHRVPNEEDPSLDRPFISEGTTLKDLIYDMTTSGSGSGLPLLVQRTIARTIVLQESIGKGRFGEVWRGKWRGEEVAVKIFSSREERSWFREAEIYQTVMLRHENILGFIAADNKDNGTWTQLWLVSDYHEHGSLFDYLNRYTVTVEGMIKLALSTASGLAHLHMEIVGTQGKPAIAHRDLKSKNILVKKNGTCCIADLGLAVRHDSATDTIDIAPNHRVGTKRYMAPEVLDDSINMKHFESFKRADIYAMGLVFWEIARRCSIGGIHEDYQLPYYDLVPSDPSVEEMRKVVCEQKLRPNIPNRWQSCEALRVMAKIMRECWYANGAARLTALRIKKTLSQLSQQEGIKM | binds | – | – |
| TGF-β receptor type I, P36897 34-503 (receptor) LQCFCHLCTKDNFTCVTDGLCFVSVTETTDKVIHNSMCIAEIDLIPRDRPFVCAPSSKTGSVTTTYCCNQDHCNKIELPTTVKSSPGLGPVELAAVIAGPVCFVCISLMLMVYICHNRTVIHHRVPNEEDPSLDRPFISEGTTLKDLIYDMTTSGSGSGLPLLVQRTIARTIVLQESIGKGRFGEVWRGKWRGEEVAVKIFSSREERSWFREAEIYQTVMLRHENILGFIAADNKDNGTWTQLWLVSDYHEHGSLFDYLNRYTVTVEGMIKLALSTASGLAHLHMEIVGTQGKPAIAHRDLKSKNILVKKNGTCCIADLGLAVRHDSATDTIDIAPNHRVGTKRYMAPEVLDDSINMKHFESFKRADIYAMGLVFWEIARRCSIGGIHEDYQLPYYDLVPSDPSVEEMRKVVCEQKLRPNIPNRWQSCEALRVMAKIMRECWYANGAARLTALRIKKTLSQLSQQEGIKM | – | – | binds |
